PubChem BioAssay AID1671190 (National Center for Advancing Translational Sciences (NCATS), 2021)
In all, about 580,000 compounds went through this assay and about 6,100 (1.1%) were called active. This list was built around the results that the source calls inconclusive (neither active nor inactive); the mix of calls is not that of the screen. The call rests on the fitted dose curve; in most records, active means well fitted inhibition curve with a large enough effect; inconclusive means small, poorly fitted or top-dose-only effect, or another doubt; inactive means no such curve, though single readings can be large or run the other way. Where the call is inconclusive, the potency comes from a doubtful curve fit.

By UniProt entry, the sequences of proteins in these tests, tags left out. Where a name states a change or a piece, a line headed by the entry shows the natural chain unless it says otherwise.
UniProt P18054: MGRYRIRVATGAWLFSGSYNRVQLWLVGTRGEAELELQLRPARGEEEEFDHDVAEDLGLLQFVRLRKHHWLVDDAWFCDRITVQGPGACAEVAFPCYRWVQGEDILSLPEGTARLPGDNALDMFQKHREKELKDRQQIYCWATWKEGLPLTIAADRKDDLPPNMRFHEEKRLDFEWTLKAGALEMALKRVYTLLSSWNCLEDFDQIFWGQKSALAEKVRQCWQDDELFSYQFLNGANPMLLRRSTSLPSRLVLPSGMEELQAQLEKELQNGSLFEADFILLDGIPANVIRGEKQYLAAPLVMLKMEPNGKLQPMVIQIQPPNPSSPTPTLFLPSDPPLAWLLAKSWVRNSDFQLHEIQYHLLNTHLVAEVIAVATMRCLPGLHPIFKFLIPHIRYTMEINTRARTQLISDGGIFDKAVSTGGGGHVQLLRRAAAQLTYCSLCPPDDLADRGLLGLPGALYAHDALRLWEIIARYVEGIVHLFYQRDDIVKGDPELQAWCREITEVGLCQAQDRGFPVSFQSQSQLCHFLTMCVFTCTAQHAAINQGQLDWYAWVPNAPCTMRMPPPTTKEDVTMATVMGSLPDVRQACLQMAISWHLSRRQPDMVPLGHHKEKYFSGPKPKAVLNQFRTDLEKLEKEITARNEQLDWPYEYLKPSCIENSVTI

Target: Polyunsaturated fatty acid lipoxygenase ALOX12 (Homo sapiens) (UniProt P18054)
Assay: Primary qHTS assay for inhibitors of human arachidonate 12S-lipoxygenase (ALOX12): Round 2
Conditions: purified 12hLO, xylenol orange hydroperoxide absorbance; activity change, negative = inhibition: at 108 µM (top of the series) unless noted
How it was run: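 Purified human 12hLO (150 nM final) in 25 mM Hepes, 0.01% Triton X-100, pH 7.0 was preincubated 15 min at room temperature with compound. Then 40 uM arachidonic acid was added, 30 min. Hydroperoxide was read by Fe-XO absorbance ratio 573/405 nm.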
On the % scale 0 is the no-effect control and ±100 the full control effect; potency means the concentration at half of the fitted maximal effect.

Row | Compound | Potency | activity change, negative = inhibition
1 | COC(=O)C1=C(C)N(C)C(=NCC2CC2)NC1c1cccc(C(F)(F)F)c1 (centres undefined) | inconclusive: 44.7 µM [inhibitor, partial curve, poor fit] | –
2 | Cc1ccccc1-n1c(-c2ccco2)n[nH]c1=S | inconclusive: 112 µM [inhibitor, single point] | –
3 | COc1ccccc1NC(=S)NCc1ccc(Cl)cc1 | active: 11.2 µM | –
4 | COC(=O)c1ccccc1NC(=O)c1cccc(N2CCCN(Cc3ccc(Cl)cc3)C2=O)c1 | inconclusive: 31.6 µM [inhibitor, partial curve, poor fit] | –
5 | Cc1ccc(/C=N/NC(=O)COc2ccccc2-c2ccccc2)cc1 | inconclusive: 158 µM [inhibitor, partial curve, poor fit] | –
6 | Cc1ccc(/C=N/NC(=O)C(=O)N/N=C/c2ccc(C)o2)o1 | – | inactive: -6.91%
7 | Cn1ncc(=S)[nH]c1=S | inconclusive: 44.7 µM [inhibitor, partial curve, poor fit] | –
8 | COc1cccc(N2CCN(C(=O)c3ccc(CS(=O)c4ccccc4C)o3)CC2)c1 (centres undefined) | – | inactive: 8.48%
9 | C#CCNc1cccc2c1S(=O)(=O)N[C@H](C)CO2 | inconclusive: 5.62 µM [inhibitor, full curve, poor fit] | –
10 | CCOc1ccc(C(=O)/C=C/c2cn(CN3CCN(C)CC3)c3ccccc23)cc1 | – | inactive: -21.5%
11 | COC(=O)c1cccc(OCCCN2CCC(C(O)(c3ccccc3)c3ccccc3)CC2)c1 | inconclusive: 70.8 µM [inhibitor, partial curve, poor fit] | –
12 | O=S(=O)(Nc1ccc(O)c2ccccc12)c1ccc(OC(F)(F)F)cc1 | inconclusive: 112 µM [inhibitor, partial curve, poor fit] | –
13 | Nc1nc2ccccc2cc1C(=O)NCc1cccs1 | – | inactive: 4.98%
14 | CCc1cc(=O)oc2cc(OCC(=O)N3CCCc4ccccc43)ccc12 | – | inconclusive: -34.2% [inhibitor]
15 | CCN1CCOC(=O)C1CC(=O)Nc1ccc(Br)cc1 (centres undefined) | – | inactive: -34.9%
16 | Cc1ccc(Cl)cc1NC(=O)c1sc(-n2nc(C)c(Cc3ccc4c(c3)OCO4)c2C)nc1C | – | inactive: 0%
17 | CC1C(=O)N(Cc2cn(Cc3ccco3)nn2)CCS(=O)(=O)N1Cc1ccc(-c2ccccc2C(F)(F)F)cc1 (centres undefined) | inconclusive: 44.7 µM [inhibitor, partial curve, poor fit] | –
18 | CC(C)CCNC(=O)c1ccc2c(c1)N(S(=O)(=O)c1ccccc1)CC2 | – | inactive: -3.76%
19 | CC(C)CCN1CCc2c(n(CCOc3ccccc3)n(-c3ccccc3)c2=O)C1 | inconclusive: 22.4 µM [inhibitor, full curve, poor fit] | –
20 | O=C(CCNC(=O)c1ccccc1Cl)Nc1nc(-c2ccccc2Cl)cs1 | inconclusive: 11.2 µM [inhibitor, full curve, poor fit] | –
21 | CC(C)(C)NCCOc1ccc2ccccc2c1 | – | inactive: 1.46%
22 | Cn1cccc1C(=O)NCCc1c[nH]c2ccccc12 | – | inactive: -13.3%

Row | Compound | Potency | activity change, negative = inhibition
23 | Cc1sc(-n2c(C)cc(/C=N/O)c2C)c(C(=O)O)c1C | inconclusive: 28.2 µM [inhibitor, partial curve, poor fit] | –
24 | CS(=O)(=O)N1CCN(S(=O)(=O)c2ccccc2[N+](=O)[O-])CC1 | – | inactive: 8.38%
25 | COc1ccc(CN2CC3=C(C2=O)C(c2ccc(C)cc2)NC(=O)N3)cc1 (centres undefined) | – | inactive: -6.89%
26 | CN(NC1CC(=O)N(c2ccccc2)C1=O)c1ccccc1 (centres undefined) | inconclusive: 44.7 µM [inhibitor, partial curve, poor fit] | –
27 | CC1=CC(C)(C)NC(=S)N1c1cc(C)cc(C)c1 | inconclusive: 44.7 µM [inhibitor, partial curve, poor fit] | –
28 | CCc1cccc(NC(=O)Cn2nc3c(cc2=O)CCCC3)c1 | – | inactive: 20.5%
29 | O=C(Nc1cccc(C(F)(F)F)c1)c1cccnc1N1CCN(c2ccccc2)CC1 | inconclusive: 2 µM [inhibitor, full curve] | –
30 | COc1ccc(OC)c(C2=NS(=O)(=O)N(C)C(C(=O)Nc3ccc(F)cc3F)=C2)c1 | inactive | –
31 | COC(=O)C1=C(C)Nc2nc3ccccc3n2C1c1ccccc1F (centres undefined) | inconclusive: 100 µM [inhibitor, partial curve, poor fit] | –
32 | CCOC(=O)[C@H]1[C@H]2COc3ccccc3[C@@H]2N2C(=O)[C@@H](CO)NC(=O)[C@@]12C | inconclusive: 35.5 µM [inhibitor, partial curve, poor fit] | –
33 | O=C(NC1CC(=O)N(c2ccccc2)C1)C1CC1 (centres undefined) | inconclusive: 31.6 µM [inhibitor, partial curve, poor fit] | –
34 | COc1ccc(CNCc2ccc3ccccc3c2)c(OC)c1 | inconclusive: 0.447 µM [inhibitor, full curve, poor fit] | –
35 | COc1ccc(OC)c(S(=O)(=O)NCCS(=O)(=O)N2CCN(c3ccccc3)CC2)c1 | inactive | –
36 | COc1ccc(Nc2oc(COc3ccccc3F)nc2C#N)cc1 | inactive | –
37 | CCOC1=C2[C@@H](CN(S(=O)(=O)c3ccc(C)cc3)[C@H]2c2ccccc2Cl)[C@H]2C(=O)N(C)C(=O)[C@H]2C1 | – | inactive: -2.4%
38 | S=C1NCN(Cc2cccnc2)CN1 | – | inactive: -15.7%
39 | O=C(O)CCc1ccc(-c2ccccc2)n1Cc1ccco1 | inconclusive: 39.8 µM [inhibitor, single point] | –
40 | C#CCOCCOCCOCCNc1nc(N2CCN(C(=O)[C@H]([C@@H](C)CC)n3cc(CCC(=O)O)nn3)CC2)nc(N2CCN(C(=O)[C@H](CCCCN)n3cc(CCC(=O)O)nn3)CC2)n1 | inconclusive: 35.5 µM [inhibitor, partial curve, poor fit] | –
41 | COCCn1c(SCc2ccc(OC)c(F)c2)nnc1-c1ccc(Cl)cc1 | inconclusive: 141 µM [inhibitor, single point] | –
42 | O=C(Nc1c(-c2cc(=O)oc3ccc(Cl)cc23)oc2ccccc12)C1CC1 | inconclusive: 56.2 µM [inhibitor, partial curve, poor fit] | –
43 | O=C(O)c1cccc(-c2ccc(/C=N/Nc3ccc([N+](=O)[O-])cc3)o2)c1 | inconclusive: 50.1 µM [inhibitor, partial curve, poor fit] | –
44 | CCN1C(=O)C2(CCN(S(=O)(=O)c3cn(C)cn3)CC2)c2ccccc21 | inconclusive: 10 µM [inhibitor, full curve] | –

In the list so far, these contain a nitro group on carbon:
Row | Compound | Potency | activity change, negative = inhibition
24 | CS(=O)(=O)N1CCN(S(=O)(=O)c2ccccc2[N+](=O)[O-])CC1 | – | inactive: 8.38%
43 | O=C(O)c1cccc(-c2ccc(/C=N/Nc3ccc([N+](=O)[O-])cc3)o2)c1 | inconclusive: 50.1 µM [inhibitor, partial curve, poor fit] | –
